PubChem BioAssay AID1259308 | NCATS, 2017
This is an unselected part of about 59,000 reagents tested. Of all reagents, about 1,510 (2.6%) were called active. 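Calls use total luciferase alone and ignore viability, so some active siRNAs may act by altering cell number.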 The numbers tell different reagents against one gene apart. Not all columns of the deposit are shown.

Assay: 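Knock-downs that increase output of a recombinant reporter protein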 (primary screen)
System: human HEK293 embryonic kidney cells stably expressing firefly luciferase (HEK-CMV-Luc2-Hygro)
Reagent: single siRNA against human genes, 0.8 pmol siRNA per well
Timing: 72 h
Read-out: 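Luciferase light (ONE-Glo) measured on one replicate plate set and viability (CellTiter-Glo) on the other, scaled to a negative control siRNA, with robust z-scores and luciferase per cell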
Reading the numbers: total luciferase, z-score: higher = more reporter protein produced
Hit rule: 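An siRNA counts as active if its total luciferase robust z-score exceeds 3; genes with two or more such siRNAs out of three were retested with fresh siRNAs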
Meaning of the calls: active = raised luciferase; inactive = no rise

total luciferase, z-score, by target and reagent
KCTD1 (potassium channel tetramerization domain containing 1): #1 0.376 inactive; #2 -1.11 inactive; #3 -1.29 inactive
SRRM4 (serine/arginine repetitive matrix 4): #1 -0.594 inactive; #2 -0.508 inactive; #3 0.222 inactive
PDZD8 (PDZ domain containing 8): #1 0.216 inactive; #2 0.713 inactive; #3 0.412 inactive
ALKBH1 (alkB homolog 1, histone H2A dioxygenase): #1 1.49 inactive; #2 -0.466 inactive; #3 1.35 inactive
TMEM235 (transmembrane protein 235): #1 0.116 inactive; #2 -0.0472 inactive; #3 0.309 inactive
ANKRD13A (ankyrin repeat domain 13A): #1 -0.208 inactive; #2 0.325 inactive; #3 1.53 inactive
TMEM9B (TMEM9 domain family member B): #1 0.989 inactive; #2 -2.68 inactive; #3 0.897 inactive
BACC1 (BPTF associated chromatin complex component 1): #1 -0.446 inactive; #2 -2.07 inactive; #3 -0.609 inactive
EPHX2 (epoxide hydrolase 2): #1 -0.105 inactive; #2 -0.415 inactive; #3 0.0267 inactive
GABRB1 (gamma-aminobutyric acid type A receptor subunit beta1): #1 0.737 inactive; #2 0.288 inactive; #3 -0.457 inactive
COL6A4P1 (collagen type VI alpha 4 pseudogene 1): #1 0.379 inactive; #2 -0.0305 inactive; #3 -0.793 inactive; #4 -0.771 inactive; #5 2.77 inactive; #6 1.63 inactive
MAGOHB (mago homolog B, exon junction complex subunit): #1 1.16 inactive; #2 0.119 inactive; #3 -0.612 inactive
GPR156 (G protein-coupled receptor 156): #1 -0.447 inactive; #2 1.39 inactive; #3 0.0766 inactive
RNF185 (ring finger protein 185): #1 0.842 inactive; #2 0.527 inactive; #3 0.368 inactive
SNRNP27 (small nuclear ribonucleoprotein U4/U6.U5 subunit 27): #1 1.11 inactive; #2 -0.128 inactive; #3 0.00337 inactive
EMC1 (ER membrane protein complex subunit 1): #1 0.475 inactive; #2 -1.46 inactive; #3 0.091 inactive
MTRES1 (mitochondrial transcription rescue factor 1): #1 0.28 inactive; #2 2.45 inactive; #3 1.42 inactive
HTR1F (5-hydroxytryptamine receptor 1F): #1 -0.588 inactive; #2 -1.22 inactive; #3 -0.494 inactive

No new results follow: 8 of the entries above.
total luciferase, z-score, by target and reagent
COL6A4P1 (collagen type VI alpha 4 pseudogene 1): #2 -0.0305 inactive; #3 -0.793 inactive; #4 -0.771 inactive; #5 2.77 inactive; #6 1.63 inactive
MAGOHB (mago homolog B, exon junction complex subunit): #1 1.16 inactive; #2 0.119 inactive; #3 -0.612 inactive
